PubChem BioAssay AID686937, Drosophila RNAi Screening Center, 2013
Screen: 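Genes in the fly needed for secretion of protein constitutively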 (primary screen). System: Drosophila S2 cells expressing secreted horseradish peroxidase. Reagent: long dsRNA against Drosophila genes. Duration: about 5.5 days (5 days dsRNA, then 12 h reporter induction). Treatment: reporter expression induced after 5 days of dsRNA, read 12 h later; inducer not stated. Measured: 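After 5 days of dsRNA and 12 h of reporter induction, medium peroxidase read by chemiluminescence and scored as per-plate z-score; higher values mean more reporter released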. Direction: z-score: higher = more reporter secreted into medium.
The screen tested about 23,000 reagents; this is a random part of those with a known target gene and a result. 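Reduced-secretion tags in replicate 1 do not always agree with the z-scores; no criterion for assigning the tags was given.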 Further read-outs or replicates are left out here. No sequences are given here. The record does not give: the amount of reagent.

For CG14400 (GeneID 35354) [DRSC02384], what was measured?
z-score, replicate 1: 0.24

Which result is listed for sdt (GeneID 44861) [DRSC17555]?
z-score, replicate 1: -0.3

What is on record for sdt (GeneID 44861) [DRSC17556]?
z-score, replicate 1: 0.26

What is on record for sdt (GeneID 44861) [DRSC17860]?
z-score, replicate 1: 0.08

With sdt (GeneID 44861) [DRSC17861], what was measured?
z-score, replicate 1: 0.22

Which result is listed for sdt (GeneID 44861) [DRSC18022]?
z-score, replicate 1: 0.28

What is on record for sdt (GeneID 44861) [DRSC18025]?
z-score, replicate 1: -1.05

How did the screen score sdt (GeneID 44861) [DRSC18026]?
z-score, replicate 1: -1.49

Which result is listed for sdt (GeneID 44861) [DRSC18027]?
z-score, replicate 1: 0.39

With sdt (GeneID 44861) [DRSC18108], what was measured?
z-score, replicate 1: 0.44

Which result is listed for ksh (GeneID 50363) [DRSC19554]?
z-score, replicate 1: -0.67

Which result is listed for Remo (GeneID 2768909) [DRSC19710]?
z-score, replicate 1: 0.46

Which result is listed for Pi4KIIalpha (GeneID 40670) [DRSC12322]?
z-score, replicate 1: 0.27

With Pi4KIIalpha (GeneID 40670) [DRSC12323], what does the deposit list?
z-score, replicate 1: 0.71

For Nrd1 (GeneID 32143) [DRSC19830], what was measured?
z-score, replicate 1: 0.21

How did the screen score wwk (GeneID 34886) [DRSC01941]?
z-score, replicate 1: 0.06

Sorted by “z-score, replicate 1” (descending): some entries from above.
sdt (GeneID 44861) [DRSC18108]: z-score, replicate 1 = 0.44
sdt (GeneID 44861) [DRSC18027]: z-score, replicate 1 = 0.39
sdt (GeneID 44861) [DRSC18026]: z-score, replicate 1 = -1.49

The list goes on.
How did the screen score Targ3 (GeneID 5740205) [DRSC11471]?
z-score, replicate 1: 0.77

With mud (GeneID 44839) [DRSC19019], what does the deposit list?
z-score, replicate 1: 0.39

How did the screen score CG14301 (GeneID 42235) [DRSC14780]?
z-score, replicate 1: 0.32

For sv (GeneID 43825) [DRSC17221], what does the deposit list?
z-score, replicate 1: 0.2

With aPKC (GeneID 47594) [DRSC05515], how do the results read?
z-score, replicate 1: 0.26

For aPKC (GeneID 47594) [DRSC07639], what does the deposit list?
z-score, replicate 1: -0.05

With Myo10A (GeneID 32028) [DRSC19758], how do the results read?
z-score, replicate 1: 0.15

What did the screen give for Myo10A (GeneID 32028) [DRSC19834]?
z-score, replicate 1: 0.39

What is on record for Myo10A (GeneID 32028) [DRSC19837]?
z-score, replicate 1: 0.21

For tomboy20 (GeneID 41285) [DRSC14913], how do the results read?
z-score, replicate 1: 0.36

How did the screen score Srx (GeneID 32768) [DRSC20005]?
z-score, replicate 1: 0.04

Which result is listed for CG13578 (GeneID 37891) [DRSC04214]?
z-score, replicate 1: -0.28

How did the screen score Rchy1 (GeneID 33901) [DRSC02542]?
z-score, replicate 1: 0.11

What is on record for vanin-like (GeneID 31551) [DRSC17440]?
z-score, replicate 1: 0.01

For GPHR (GeneID 36682) [DRSC07075], what does the deposit list?
z-score, replicate 1: -0.14

How did the screen score CG13085 (GeneID 35219) [DRSC02189]?
z-score, replicate 1: 0.23

What did the screen give for CG7945 (GeneID 39679) [DRSC10934]?
z-score, replicate 1: 0.47

What did the screen give for CG6650 (GeneID 39555) [DRSC10685]?
z-score, replicate 1: 0.37

With PIG-S (GeneID 42979) [DRSC14643], what was measured?
z-score, replicate 1: 0.19

Which result is listed for PIG-S (GeneID 42979) [DRSC15388]?
z-score, replicate 1: 0.26

Which result is listed for PIG-S (GeneID 42979) [DRSC15952]?
z-score, replicate 1: 0.08

What did the screen give for CG15725 (GeneID 32224) [DRSC19691]?
z-score, replicate 1: 0.24

For CG11458 (GeneID 50110) [DRSC11666], how do the results read?
z-score, replicate 1: 0.34

With Sym (GeneID 40709) [DRSC12301], what was measured?
z-score, replicate 1: -2.27; phenotype, replicate 1: reduced secretion
